We go through one molecule from article PMC6687201, “Atg11 tethers Atg9 vesicles to initiate selective autophagy” (PLoS Biology, 2019).

In this assay the target is GFP-tagged Atg11^Δdim (S. cerevisiae). Nature of the assay: co-IP; IP of GFP-tagged Atg11 or its fragments, co-IP of HA-tagged Atg9; lysates of log-phase growing and 2 h starved cells.

Results are given in words; binding and its absence hold for the method and conditions named. In cells and extracts the contact can be indirect. Binding calls can cover weak binding; strength is not graded here. Sequences can lack the tags named with a protein.

B1: HA-tagged Atg9 (natural protein, S. cerevisiae, UniProt Q12142 1-997, looked up)
chain: MERDEYQLPNSHGKNTFLSRIFGLQSDEVNPSLNSQEMSNFPLPDIERGSSLLHSTNDSREDVDENDLRVPESDQGTSTEEEDEVDEEQVQAYAPQISDGLDGDHQLNSVTSKENVLETEKSNLERLVEGSTDDSVPKVGQLSSEEEEDNEFINNDGFDDDTPLFQKSKIHEFSSKKSNTIEDGKRPLFFRHILQNNRPQRDTQKLFTSSNAIHHDKDKSANNGPRNINGNQKHGTKYFGSATQPRFTGSPLNNTNRFTKLFPLRKPNLLSNISVLNNTPEDRINTLSVKERALWKWANVENLDIFLQDVYNYYLGNGFYCIILEKILNICTLLFVVFVSTYMGHCVDYSKLPTSHRVSDIIIDKCYSNSITGFTKFFLWMFYFFVILKIVQLYFDVQKLSELQNFYKYLLNISDDELQTLPWQNVIQQLMYLKDQNAMTANVVEVKAKNRIDAHDVANRIMRRENYLIALYNSDILNLSLPIPLFRTNVLTKTLEWNINLCVMGFVFNESGFIKQSILKPSQREFTREELQKRFMLAGFLNIILAPFLVTYFVLLYFFRYFNEYKTSPGSIGARQYTPIAEWKFREYNELYHIFKKRISLSTTLANKYVDQFPKEKTNLFLKFVSFICGSFVAILAFLTVFDPENFLNFEITSDRSVIFYITILGAIWSVSRNTITQEYHVFDPEETLKELYEYTHYLPKEWEGRYHKEEIKLEFCKLYNLRIVILLRELTSLMITPFVLWFSLPSSAGRIVDFFRENSEYVDGLGYVCKYAMFNMKNIDGEDTHSMDEDSLTKKIAVNGSHTLNSKRRSKFTAEDHSDKDLANNKMLQSYVYFMDDYSNSENLTGKYQLPAKKGYPNNEGDSFLNNKYSWRKQFQPGQKPELFRIGKHALGPGHNISPAIYSTRNPGKNWDNNNNGDDIKNGTNNATAKNDDNNGNNDHEYVLTESFLDSGAFPNHDVIDHNKMLNSNYNGNGILNKGGVLGLVKEYYKKSDVGR
notes: Atg9, transmembrane autophagy protein, yeast; also called HA-Atg9; source: yeast cells expressing HA-tagged Atg9, in lysate
Take B1: the binding result is on record as “binds”.
